Source: PubChem BioAssay AID504834 (National Center for Advancing Translational Sciences (NCATS), 2011)
The whole screen tested about 320,000 compounds, of which about 22,000 (6.9%) were called active. Inconclusive results, whose numbers are uncertain, are shown with a selection of clear calls. Calls come from the whole dose curve; as a rule, active = well fitted inhibition curve with a large enough effect; inconclusive = small, poorly fitted or top-dose-only effect, or another doubt; inactive = no such curve, though single readings can be large or run the other way. Where the call is inconclusive, the potency comes from a doubtful curve fit.

assay: Primary qHTS for delayed death inhibitors of the malarial parasite plastid, 96 hour incubation; details: P. falciparum luciferase reporter growth; series mostly up to 28.7 µM; activity change, negative = inhibition: at the top concentration
How it was run: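 Delayed-death screen, second-generation endpoint: infected erythrocytes, 2% hematocrit, 0.05% parasitemia final; 96 hours at 37 C, 5% CO2; luciferase detection reagent; luminescence decrease equals reduced growth.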
% is set by controls: 0 for no effect and ±100 for the full control effect; potency is the fitted concentration of half-maximal effect.

SMILES	Potency	activity change, negative = inhibition
O=C(CS(=O)(=O)Cc1ccccc1)Nc1ccc2c(c1)OCO2	inconclusive: 11.7 µM [inhibitor, single point]	
O=C(CSc1nnc(COc2ccc(Cl)cc2)o1)N1CCOCC1	inconclusive: 18.5 µM [inhibitor, partial curve, poor fit]	
COc1ccc(-c2nnn(CC(=O)N3CCN(c4ccccc4OC)CC3)n2)cc1OC	inconclusive: 3.29 µM [inhibitor, single point]	
CCNC(=S)NCc1ccc(OC)c(OC)c1	active: 5.22 µM	
CCOCCCNC(=S)N1CCCC(c2nc3ccc(C)cc3[nH]2)C1 (stereo not given)		inactive: 18.8%
CCc1cc2c(=O)c(-c3nc4ccccc4n3C)coc2c(CN2CCCC(C)C2)c1O (stereo not given)	inconclusive: 11.7 µM [inhibitor, partial curve]	
Fc1ccc(/C=N/n2c(COc3ccccc3)n[nH]c2=S)cc1		inactive: 4.78%
CCOC(=O)C1(Cc2cccc(Cl)c2)CCCN(C(=O)c2ccc(C)nc2)C1 (stereo not given)	active: 14.7 µM	
Cc1c(C(=O)Nc2ccc(F)cc2)oc2ccc(S(=O)(=O)N3CCC4(CC3)OCCO4)cc12	inconclusive: 10.4 µM [inhibitor, partial curve]	
CCOc1ccccc1NC(=O)CSc1nnc2ccc(-c3ccncc3)nn12	inconclusive: 18.5 µM [inhibitor, partial curve, poor fit]	
CN(CCCNS(=O)(=O)c1cccc2cccnc12)Cc1ccccc1	inconclusive: 18.5 µM [inhibitor, single point]	
CN1CCN(NC(=O)/C=C/c2cccc(Cl)c2)CC1		inactive: 5%
Cc1ccc(C(=O)NCCN2CCOCC2)cc1S(=O)(=O)N1CCCCC1	inconclusive: 18.5 µM [inhibitor, single point]	
CN(c1cccc(NC(=O)c2ccc(C(C)(C)C)cc2)c1)S(C)(=O)=O		inactive: -10.2%
Cn1cc(C(=O)C(=O)NC2CCCCC2)c2ccccc21	inconclusive: 11.7 µM [inhibitor, partial curve]	
COc1ccc(C2CC(=O)c3cnc(NC(=O)c4ccccc4OC)nc3C2)c(OC)c1 (stereo not given)	active: 9.28 µM	
COC(=O)CSc1nnc(CCc2ccccc2)n1C	inconclusive: 4.15 µM [inhibitor, single point]	
COC(=O)/C=c1/sc2nc3ccccc3n2c1=O	inconclusive: 18.5 µM [inhibitor, single point]	
CCCc1cc(=O)[nH]c(SCC(=O)c2cc(C)n(CCC)c2C)n1	inconclusive: 0.0029 µM [inhibitor, full curve, poor fit]	
Cc1nnsc1S(=O)c1ccccc1Cl (stereo not given)	inconclusive: 13.1 µM [inhibitor, single point]	
CC(=O)Nc1ccccc1NC(=O)c1ccc(C)cc1C	inconclusive: 2.94 µM [inhibitor, single point]	
COC(=O)[C@@]12CCCN1[C@H](c1ccc(-c3ccccc3)cc1)[C@@H]1C(=O)N(C)C(=O)[C@@H]12	inconclusive: 14.7 µM [inhibitor, partial curve, poor fit]	
CCOC(=O)C1=C(C)NC2=C(C(=O)CC(c3cccs3)C2)C1c1cccs1 (stereo not given)	inconclusive: 10.4 µM [inhibitor, single point]	
O=C(Nc1ccc(Cl)cc1)c1ccc(OC2CSC2)cc1	inconclusive: 18.5 µM [inhibitor, single point]	
CC(OC(=O)c1cnccn1)C(=O)c1ccccc1 (stereo not given)		inactive: -1.81%

Rewritten as a markdown table: part of the list above

| SMILES | Potency | activity change, negative = inhibition |
| --- | --- | --- |
| O=C(CS(=O)(=O)Cc1ccccc1)Nc1ccc2c(c1)OCO2 | inconclusive: 11.7 µM [inhibitor, single point] |  |
| CCOCCCNC(=S)N1CCCC(c2nc3ccc(C)cc3[nH]2)C1 (stereo not given) |  | inactive: 18.8% |
| CN(c1cccc(NC(=O)c2ccc(C(C)(C)C)cc2)c1)S(C)(=O)=O |  | inactive: -10.2% |

(more compounds)

SMILES	Potency	activity change, negative = inhibition
COc1ccc(-c2nnc(Nc3nc4c(OC)cccc4s3)o2)cc1		inactive: 59.3%
O=C(NC1=NCCS1)c1ccc(OCC2CCCO2)cc1 (stereo not given)		inactive: 2%
O=C1CCC(=O)N(c2ccccc2)N1		inactive: 11.7%
CN(C)c1ccc2c3c(ccc(N(C)C)c13)COC2	inconclusive: 0.37 µM [inhibitor, full curve, poor fit]	
CCn1c(SCC(=O)Nc2nccs2)nnc1-c1ccco1	inconclusive: 3.29 µM [inhibitor, full curve, poor fit]	
Cc1occc1C(=O)NNC(=S)NCc1ccccc1		inactive: 38.7%
CC(=O)c1ccc(S(=O)(=O)NCC(=O)N2CCN(C/C=C/c3ccccc3)CC2)cc1	active: 11.7 µM	
COc1ccc(Cc2nnc(NC(=O)C3CC(=O)N(c4ccccc4)C3)s2)cc1OC (stereo not given)	active: 2.94 µM	
Nc1nnnn1/N=C/c1cc([N+](=O)[O-])ccc1O		inactive: -13.5%
CCOc1cc(C(=O)Nc2nnc(CC)s2)ccc1OCC(=O)N1CCOCC1	inconclusive: 1.04 µM [inhibitor, partial curve, poor fit]	
CCCc1cc(=O)[nH]c(SCC(=O)Nc2oc(C)c3c(C)n[nH]c(=O)c23)n1		inactive: 7.52%
Cc1cc(C)cc(NC(=O)Cn2c(=O)oc3cc(S(=O)(=O)N4CC(C)CC(C)C4)ccc32)c1 (stereo not given)	inconclusive: 18.5 µM [inhibitor, single point]	
CCc1ccc(N2CCN(CCNC(=O)Nc3ccc(OC)cc3)CC2)cc1	inconclusive: 11.7 µM [inhibitor, single point]	
COC(=O)c1cc(C)cc(=O)o1		inactive: 63.1%
Cc1cc(=O)oc(C)c1C(=O)NCc1c(F)cc(F)cc1F	inconclusive: 0.0029 µM [inhibitor, full curve, poor fit]	
Cc1cc(C)n2c(Nc3ccc4c(c3)OCCO4)c(-c3ccco3)nc2n1	active: 11.7 µM	
CCCc1nnc(SCC(=O)Nc2nnc(CC)s2)n1CC1CCCO1 (stereo not given)		inactive: 50.8%
OC(COCc1ccc(Cl)cc1)CN1CC=C(c2ccccc2)CC1 (stereo not given)	active: 3.29 µM	
Cc1ccccc1C(=O)OCCN1CCOCC1	active: 8.28 µM	
O=C(NCc1ccc(Cl)cc1)c1ccncc1	inconclusive: 16.5 µM [inhibitor, single point]	
CC(/C=N/NC(=O)CN1CCN(Cc2ccc(Cl)cc2)CC1)=C\c1ccco1	inconclusive: 18.5 µM [inhibitor, single point]	
CCn1c(NCc2cc(OC)c(OC)c(OC)c2)nc2ccccc21	active: 0.233 µM	
NC(=O)Nc1ccc(C(=O)N2CCN(S(=O)(=O)Cc3ccccc3)CC2)cc1	inconclusive: 18.5 µM [inhibitor, single point]	
CCc1ccc(Oc2cc(Cl)nc(N)n2)cc1		inactive: 4.51%
OC(COc1ccc2ccccc2c1)CN1CCCC1 (stereo not given)		inactive: 31%

SMILES	Potency	activity change, negative = inhibition
Cc1ccc(CNC(=O)c2cn(C)c3ccc(S(=O)(=O)N4CCOCC4)cc3c2=O)cc1	inconclusive: 18.5 µM [inhibitor, single point]	
CCN1CCN(Cc2c(C)[nH]c3ccc(OC)cc3c2=O)CC1		inactive: 14.9%
NNC(=O)c1[nH]c2ccc(Cl)cc2c1-c1ccccc1	inconclusive: 8.28 µM [inhibitor, partial curve]	
COc1ccc(OC)c(S(=O)(=O)Nc2cccc(-c3ccc(N4CCCCCC4)nn3)c2)c1	inconclusive: 18.5 µM [inhibitor, single point]	
CC(C)N(C(=O)CSc1ccc(S(=O)(=O)N2CCCCC2)cn1)C(C)C	inconclusive: 13.1 µM [inhibitor, single point]	
COc1ccc(NC(=O)Nc2cccnc2)cc1	inconclusive: 18.5 µM [inhibitor, single point]	
O=C1Nc2ccccc2C1=Nc1ccc(Cl)cc1	inconclusive: 3.29 µM [inhibitor, partial curve, poor fit]	
Cc1cc(NC(=O)CSc2nc3c(c(=O)n2-c2ccccc2)SC(C)C3)no1 (stereo not given)	active: 4.15 µM	
Cc1onc(-c2ccccc2Cl)c1C(=O)Nc1ncn[nH]1		inactive: 27.7%
Cc1ccc(S(=O)(=O)N2CCC(=O)N2)cc1		inactive: 4.37%
CCN(CC)CCNC(=O)c1ccc(NC(=O)c2ccc(Cl)c(S(=O)(=O)Nc3ccccc3OC)c2)cc1	active: 2.33 µM	
O=S(=O)(c1ccc(Cl)c(C(F)(F)F)c1)N1CCN(CC(O)COc2ccccc2F)CC1 (stereo not given)	inconclusive: 18.5 µM [inhibitor, single point]	
O=C1CCC(C(=O)N2CCN(c3ccccc3Cl)CC2)CN1CC1CCCCC1 (stereo not given)	inconclusive: 18.5 µM [inhibitor, single point]	
O=C(CCCN1C(=O)/C(=C\c2cccs2)SC1=S)Nc1ccc(O)cc1		inactive: 56.9%
CC1Cc2ccccc2N1C(=O)CSc1nccc(=O)[nH]1 (stereo not given)		inactive: 35.6%
CC1=CC2=NC(=O)CC(C)(C(=O)N(CC(=O)NC3CCCC3)c3ccccc3F)N2C=C1 (stereo not given)		inactive: -18.9%
CCN1CCN(c2cc(C)c3cc(NC(=S)N4CCN(c5ccc(F)cc5)CC4)ccc3n2)CC1	inconclusive: 13.1 µM [inhibitor, single point]	
Cc1sc(/C=C2\C(=O)ON=C2c2ccccc2)cc1Br		inactive: -24.8%
C/C(=N\NC(=S)NC(C)C)c1ccco1	inconclusive: 10.4 µM [inhibitor, partial curve, poor fit]	
CC(C(O)c1ccc(O)cc1)N1CCC(Cc2ccccc2)CC1 (stereo not given)	inconclusive: 19 µM [inhibitor, single point]	
O=C(c1ccc(F)cc1)N1CCC(C(=O)N2CCN(S(=O)(=O)c3ccccc3Br)CC2)CC1	inconclusive: 8.28 µM [inhibitor, partial curve]	
COc1cc2c(cc1OC)/C(=C/C(=O)c1cccc([N+](=O)[O-])c1)NCC2	inconclusive: 18.5 µM [inhibitor, single point]	
O=C(CSc1nnc(NC(=O)C2CC(=O)N(c3ccc(F)cc3)C2)s1)NCC1CCCO1 (stereo not given)		inactive: 4.83%
CC(=O)Nc1ccc(C(=O)OCC(=O)NC(=O)NC2CCCCC2)cc1	inconclusive: 10.4 µM [inhibitor, partial curve, poor fit]	
CC(=O)NNc1ncnc2c1cnn2-c1ccc(C)c(C)c1	inconclusive: 10.4 µM [inhibitor, single point]	
